# Measured values reported in the supplement of paper PMC6411743.
# ± gives the standard deviation of the averaged measurements. The list shows a part of the results, in another mix than the full data.
# Experiments:
# Experiment in all cases: NP40-soluble protein abundance relative to vehicle (solubility fold change) (ratio); higher = more soluble protein in presence of ATP
# SERGEF = target: T1, SERGEF (UniProt Q9UGK8)
# T1 sequence (whole entry): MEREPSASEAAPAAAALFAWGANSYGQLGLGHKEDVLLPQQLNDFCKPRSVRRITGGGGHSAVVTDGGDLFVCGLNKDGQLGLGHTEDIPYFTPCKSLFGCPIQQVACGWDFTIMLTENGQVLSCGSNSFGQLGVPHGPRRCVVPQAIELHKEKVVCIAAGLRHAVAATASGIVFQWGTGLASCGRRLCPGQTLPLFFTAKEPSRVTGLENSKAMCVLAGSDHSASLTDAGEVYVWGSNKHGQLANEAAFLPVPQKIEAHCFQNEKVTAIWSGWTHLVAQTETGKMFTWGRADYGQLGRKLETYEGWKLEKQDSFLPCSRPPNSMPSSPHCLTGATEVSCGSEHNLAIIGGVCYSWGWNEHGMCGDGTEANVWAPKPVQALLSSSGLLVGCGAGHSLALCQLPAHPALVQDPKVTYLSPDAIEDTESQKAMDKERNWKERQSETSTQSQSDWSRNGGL
# In short: (§1)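 Jurkat crude lysate (Dounce-homogenised) was treated with eight concentrations from 0.1 to 10 mM for 10 min at room temperature, then 3 min at 37 °C. It was solubilised with 0.8% NP40 and benzonase (60 min, 4 °C) and ultracentrifuged, and the supernatant was TMT-labelled for LC-MS/MS. Intensities were vsn-normalised, and the value is the fold change against the NP40-processed vehicle per replicate, from three independent experiments.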
# SNX6 = target: T2, SNX6 (UniProt Q9UNH7)
# T2 sequence (whole entry): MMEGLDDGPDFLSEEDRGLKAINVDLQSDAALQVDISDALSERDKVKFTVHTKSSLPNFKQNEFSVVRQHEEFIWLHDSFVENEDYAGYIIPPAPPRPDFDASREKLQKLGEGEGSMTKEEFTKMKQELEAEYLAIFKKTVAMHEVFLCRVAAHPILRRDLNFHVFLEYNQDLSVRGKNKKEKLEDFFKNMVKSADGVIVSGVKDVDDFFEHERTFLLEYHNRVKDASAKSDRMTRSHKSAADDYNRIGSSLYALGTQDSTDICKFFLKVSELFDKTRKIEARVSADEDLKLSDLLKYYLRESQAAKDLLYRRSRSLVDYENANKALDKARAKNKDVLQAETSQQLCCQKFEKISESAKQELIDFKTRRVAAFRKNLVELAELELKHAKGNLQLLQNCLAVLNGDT
# In short: as §1
# TFIP11 = target: T3, TFIP11 (UniProt Q9UBB9)
# T3 sequence (whole entry): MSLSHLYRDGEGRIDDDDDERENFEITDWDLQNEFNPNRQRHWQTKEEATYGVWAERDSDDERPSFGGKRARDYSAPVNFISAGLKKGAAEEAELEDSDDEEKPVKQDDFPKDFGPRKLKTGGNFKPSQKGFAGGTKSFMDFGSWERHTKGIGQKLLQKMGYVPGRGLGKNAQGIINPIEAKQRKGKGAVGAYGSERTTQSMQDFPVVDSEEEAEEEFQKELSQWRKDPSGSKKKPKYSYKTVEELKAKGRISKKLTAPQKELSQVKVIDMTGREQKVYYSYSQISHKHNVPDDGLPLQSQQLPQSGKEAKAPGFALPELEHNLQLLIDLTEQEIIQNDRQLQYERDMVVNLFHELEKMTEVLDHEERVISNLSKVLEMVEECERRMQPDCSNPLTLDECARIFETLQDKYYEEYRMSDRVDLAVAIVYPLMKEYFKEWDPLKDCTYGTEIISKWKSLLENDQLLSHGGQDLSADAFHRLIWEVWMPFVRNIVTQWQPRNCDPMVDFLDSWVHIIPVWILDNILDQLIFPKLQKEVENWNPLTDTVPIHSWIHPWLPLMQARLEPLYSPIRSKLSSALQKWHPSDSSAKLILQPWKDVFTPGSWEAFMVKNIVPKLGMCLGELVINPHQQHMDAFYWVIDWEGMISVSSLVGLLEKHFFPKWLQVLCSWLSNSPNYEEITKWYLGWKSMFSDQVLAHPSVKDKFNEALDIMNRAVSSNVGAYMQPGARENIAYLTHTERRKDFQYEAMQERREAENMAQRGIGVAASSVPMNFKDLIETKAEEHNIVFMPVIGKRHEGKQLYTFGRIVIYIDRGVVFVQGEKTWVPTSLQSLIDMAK
# In short: as §1
# [1] = target: T4, UniProt Q9UJS0 and related entries
# T4 sequence (whole entry): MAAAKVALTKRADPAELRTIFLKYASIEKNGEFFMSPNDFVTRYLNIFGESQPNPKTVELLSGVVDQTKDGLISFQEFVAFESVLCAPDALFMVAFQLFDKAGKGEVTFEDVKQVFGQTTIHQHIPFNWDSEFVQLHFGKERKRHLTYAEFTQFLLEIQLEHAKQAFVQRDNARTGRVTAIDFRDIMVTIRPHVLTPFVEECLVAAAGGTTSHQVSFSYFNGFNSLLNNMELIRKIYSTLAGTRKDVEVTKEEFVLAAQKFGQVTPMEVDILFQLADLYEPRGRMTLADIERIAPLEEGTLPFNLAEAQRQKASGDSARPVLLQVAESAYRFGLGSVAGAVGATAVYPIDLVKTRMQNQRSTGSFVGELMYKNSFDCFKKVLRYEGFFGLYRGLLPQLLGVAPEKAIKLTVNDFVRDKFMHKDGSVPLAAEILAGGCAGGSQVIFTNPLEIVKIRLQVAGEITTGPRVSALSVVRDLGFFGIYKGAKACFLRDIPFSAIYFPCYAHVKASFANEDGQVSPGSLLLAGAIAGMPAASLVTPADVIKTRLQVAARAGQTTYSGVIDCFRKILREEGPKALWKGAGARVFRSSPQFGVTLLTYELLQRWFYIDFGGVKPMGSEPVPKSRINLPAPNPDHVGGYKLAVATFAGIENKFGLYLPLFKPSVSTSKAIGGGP
# In short: as §1
smiles,measurement,setting,value
Nc1ncnc2c1ncn2[C@@H]1O[C@H](COP(=O)(O)OP(=O)(O)OP(=O)(O)O)[C@@H](O)[C@H]1O [adenosine triphosphate],NP40-soluble protein abundance,SERGEF; concentration: 1mM,0.978 ± 0.092
same,NP40-soluble protein abundance,SERGEF; concentration: 2mM,0.988 ± 0.074
same,NP40-soluble protein abundance,SERGEF; concentration: 4mM,0.972 ± 0.11
same,NP40-soluble protein abundance,SERGEF; concentration: 6mM,0.942 ± 0.12
same,NP40-soluble protein abundance,SERGEF; concentration: 8mM,0.94 ± 0.088
same,NP40-soluble protein abundance,SERGEF; concentration: 10mM,0.982 ± 0.088
same,NP40-soluble protein abundance,SNX6; concentration: 1mM,0.941 ± 0.037
same,NP40-soluble protein abundance,SNX6; concentration: 2mM,0.944 ± 0.013
same,NP40-soluble protein abundance,SNX6; concentration: 4mM,0.899 ± 0.029
same,NP40-soluble protein abundance,SNX6; concentration: 6mM,0.982 ± 0.04
same,NP40-soluble protein abundance,SNX6; concentration: 8mM,0.917 ± 0.018
same,NP40-soluble protein abundance,SNX6; concentration: 10mM,0.91 ± 0.035
same,NP40-soluble protein abundance,TFIP11; concentration: 1mM,1.09 ± 0.033
same,NP40-soluble protein abundance,TFIP11; concentration: 2mM,1.08 ± 0.075
same,NP40-soluble protein abundance,TFIP11; concentration: 4mM,1.1 ± 0.066
same,NP40-soluble protein abundance,TFIP11; concentration: 6mM,1.14 ± 0.086
same,NP40-soluble protein abundance,TFIP11; concentration: 8mM,1.21 ± 0.097
same,NP40-soluble protein abundance,TFIP11; concentration: 10mM,1.28 ± 0.12
same,NP40-soluble protein abundance,[1]; concentration: 1mM,1.1 ± 0.099
same,NP40-soluble protein abundance,[1]; concentration: 2mM,1.04 ± 0.079
same,NP40-soluble protein abundance,[1]; concentration: 4mM,1.05 ± 0.09

# Part of the list above, tab-delimited:
smiles	measurement	setting	value
Nc1ncnc2c1ncn2[C@@H]1O[C@H](COP(=O)(O)OP(=O)(O)OP(=O)(O)O)[C@@H](O)[C@H]1O [adenosine triphosphate]	NP40-soluble protein abundance	TFIP11; concentration: 2mM	1.08 ± 0.075
same	NP40-soluble protein abundance	TFIP11; concentration: 4mM	1.1 ± 0.066
